PubChem BioAssay AID2685 (National Center for Advancing Translational Sciences (NCATS), 2010)
The campaign covered roughly 320,000 compounds. About 2,100 (0.66%) were called active. The inconclusive results got no clear call from the source; some entries with a clear call stand among them for comparison. The call rests on the fitted dose curve; in most records, active means well fitted inhibition curve with a large enough effect in the signal ratio, with a control signal flat (not every such curve was filed as active); inconclusive means small, poorly fitted or top-dose-only effect, or effect the other way, or a change in a side signal; inactive means flat fitted curve, though single readings scatter; the % refers to the signal ratio. A potency beside an inconclusive call is a rough fit, not a confirmed value.
On the % scale 0 is the no-effect control and ±100 the full control effect; potency means the concentration at half of the fitted maximal effect.

Assay: qHTS Assay for Lipid Storage Modulators in Drosophila S3 Cells
Conditions: BODIPY lipid droplet fluorescence, 18-24 h, cells fed with added oleic acid; lipid storage change, negative = inhibition: at 46.1 µM (top of the series) unless noted
Outline: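 Drosophila S3 cells loaded with oleic acid (400 uM, as added) and compounds at several concentrations; lipid droplets imaged by 488-nm laser-scanning cytometry, 500–530 nm intensity and object ratio to cell channel. Percent activity normalized to 20 uM Triacsin C.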
With `CCOc1ccccc1NC(=O)C1=C(C)NC(=S)NC1c1cccs1` (stereo not drawn) the lipid storage change, negative = inhibition was inconclusive: -6.3%. In the case of `CCOc1ccc(C(=O)Nc2ccc3[nH]ncc3c2)cc1`, the lipid storage change, negative = inhibition is reported as inconclusive: 41.6%. In the case of `O=C(COC(=O)c1ccc(Br)o1)Nc1nc2c(F)c(F)c(F)cc2s1`, the lipid storage change, negative = inhibition is reported as inconclusive: 5%. In the case of `Cc1ccccc1NC(=O)Cc1nc(COC(=O)CNS(=O)(=O)c2cccc(Br)c2)cs1`, the lipid storage change, negative = inhibition is reported as inconclusive: -26.1%. In the case of `O=C(CN1C(=O)NC(c2ccccc2)(c2ccccc2)C1=O)NCCNCCO`, the lipid storage change, negative = inhibition is reported as inconclusive: -24.4%. For `Cc1ccc(CNC(=S)N(C)C)cc1`, the Potency was inconclusive: 0.0046 µM [rising, full curve, poor fit]. With `COc1ccc(CCN2CC(C(=O)N(C)CCn3nc(C)cc3C)CCC2=O)cc1` (stereo not drawn) the lipid storage change, negative = inhibition was inconclusive: -162%. For `CC(C)CC1NC(=O)N(CC(=O)Nc2ccc3c(c2)CCC3)C1=O` (stereo not drawn), the lipid storage change, negative = inhibition was inconclusive: 17.3%. With `Cc1ccc(C(=O)CSc2nnc3n2CCCCC3)s1` the lipid storage change, negative = inhibition was inconclusive: 14.3%. For `CC(C)C(C(=O)NCC1CCCO1)N(Cc1ccco1)C(=O)CNS(=O)(=O)c1ccc(F)cc1` (stereo not drawn), the lipid storage change, negative = inhibition was inconclusive: -15.4%. In the case of `CNC(=O)c1[nH]cnc1C(=O)NCC(=O)OC(C)(C)C`, the Potency is reported as inconclusive: 0.651 µM [activator, full curve]. With `CC(C)C(=O)Nc1ccc(C(=O)NNC(=O)CCc2ccccc2)cc1` the lipid storage change, negative = inhibition was inconclusive: 10.1%. For `CCOC(=O)N1CCN(C(=O)CN2C(=O)c3ccccc3S2(=O)=O)CC1`, the lipid storage change, negative = inhibition was inconclusive: -31.3%. For `COc1nc2ccccc2cc1-c1noc(-c2cccnc2)n1`, the Potency was inconclusive: 18.4 µM [activator, single point]. In the case of `O=C(NNC1CC(=O)N(c2ccc(Cl)cc2)C1=O)c1ccco1` (stereo not drawn), the lipid storage change, negative = inhibition is reported as inconclusive: 19%. For `CC(=O)N1N=C(c2ccc(C)cc2)OC1c1ccc(C(C)C)cc1` (stereo not drawn), the lipid storage change, negative = inhibition was inconclusive: 15.7%. In the case of `COc1cc(C(=O)O[C@H]2C/C(C)=C/CC[C@@]3(C)O[C@@H]3[C@H](O)[C@@H]2C(C)C)cc(OC)c1OC`, the lipid storage change, negative = inhibition is reported as inconclusive: -28.5%. With `CCN(CC(=O)Nc1cc(Cl)ccc1C)C(=O)CSCc1ccccc1` the lipid storage change, negative = inhibition was inconclusive: -65.7%. For `O=C(CCCl)Nc1nc2c(s1)CCc1ccccc1-2`, the Potency was inconclusive: 2.06 µM [falling, partial curve, poor fit]. In the case of `O=C(O)c1ccc(N2CCCCS2(=O)=O)cc1`, the lipid storage change, negative = inhibition is reported as inconclusive: -0.576%. For `CS(=O)(=O)c1cnc2c(-c3ccsc3)cnn2c1N`, the lipid storage change, negative = inhibition was inconclusive: 3.1%. For `N#CC1(c2c(O)nc3n(c2=O)CCCS3)CCCCC1`, the lipid storage change, negative = inhibition was inconclusive: -3.84%. For `CCCCN(C(=O)C1CC(=O)N(c2ccc(C)cc2)C1)c1c(N)n(CCC)c(=O)[nH]c1=O` (stereo not drawn), the Potency was active: 20.6 µM.
